{"sequences": {"note": "Protein sequences, listed by entry. Tags and fused reporters are not part of them.", "UniProt Q03164, whole entry, looked up": "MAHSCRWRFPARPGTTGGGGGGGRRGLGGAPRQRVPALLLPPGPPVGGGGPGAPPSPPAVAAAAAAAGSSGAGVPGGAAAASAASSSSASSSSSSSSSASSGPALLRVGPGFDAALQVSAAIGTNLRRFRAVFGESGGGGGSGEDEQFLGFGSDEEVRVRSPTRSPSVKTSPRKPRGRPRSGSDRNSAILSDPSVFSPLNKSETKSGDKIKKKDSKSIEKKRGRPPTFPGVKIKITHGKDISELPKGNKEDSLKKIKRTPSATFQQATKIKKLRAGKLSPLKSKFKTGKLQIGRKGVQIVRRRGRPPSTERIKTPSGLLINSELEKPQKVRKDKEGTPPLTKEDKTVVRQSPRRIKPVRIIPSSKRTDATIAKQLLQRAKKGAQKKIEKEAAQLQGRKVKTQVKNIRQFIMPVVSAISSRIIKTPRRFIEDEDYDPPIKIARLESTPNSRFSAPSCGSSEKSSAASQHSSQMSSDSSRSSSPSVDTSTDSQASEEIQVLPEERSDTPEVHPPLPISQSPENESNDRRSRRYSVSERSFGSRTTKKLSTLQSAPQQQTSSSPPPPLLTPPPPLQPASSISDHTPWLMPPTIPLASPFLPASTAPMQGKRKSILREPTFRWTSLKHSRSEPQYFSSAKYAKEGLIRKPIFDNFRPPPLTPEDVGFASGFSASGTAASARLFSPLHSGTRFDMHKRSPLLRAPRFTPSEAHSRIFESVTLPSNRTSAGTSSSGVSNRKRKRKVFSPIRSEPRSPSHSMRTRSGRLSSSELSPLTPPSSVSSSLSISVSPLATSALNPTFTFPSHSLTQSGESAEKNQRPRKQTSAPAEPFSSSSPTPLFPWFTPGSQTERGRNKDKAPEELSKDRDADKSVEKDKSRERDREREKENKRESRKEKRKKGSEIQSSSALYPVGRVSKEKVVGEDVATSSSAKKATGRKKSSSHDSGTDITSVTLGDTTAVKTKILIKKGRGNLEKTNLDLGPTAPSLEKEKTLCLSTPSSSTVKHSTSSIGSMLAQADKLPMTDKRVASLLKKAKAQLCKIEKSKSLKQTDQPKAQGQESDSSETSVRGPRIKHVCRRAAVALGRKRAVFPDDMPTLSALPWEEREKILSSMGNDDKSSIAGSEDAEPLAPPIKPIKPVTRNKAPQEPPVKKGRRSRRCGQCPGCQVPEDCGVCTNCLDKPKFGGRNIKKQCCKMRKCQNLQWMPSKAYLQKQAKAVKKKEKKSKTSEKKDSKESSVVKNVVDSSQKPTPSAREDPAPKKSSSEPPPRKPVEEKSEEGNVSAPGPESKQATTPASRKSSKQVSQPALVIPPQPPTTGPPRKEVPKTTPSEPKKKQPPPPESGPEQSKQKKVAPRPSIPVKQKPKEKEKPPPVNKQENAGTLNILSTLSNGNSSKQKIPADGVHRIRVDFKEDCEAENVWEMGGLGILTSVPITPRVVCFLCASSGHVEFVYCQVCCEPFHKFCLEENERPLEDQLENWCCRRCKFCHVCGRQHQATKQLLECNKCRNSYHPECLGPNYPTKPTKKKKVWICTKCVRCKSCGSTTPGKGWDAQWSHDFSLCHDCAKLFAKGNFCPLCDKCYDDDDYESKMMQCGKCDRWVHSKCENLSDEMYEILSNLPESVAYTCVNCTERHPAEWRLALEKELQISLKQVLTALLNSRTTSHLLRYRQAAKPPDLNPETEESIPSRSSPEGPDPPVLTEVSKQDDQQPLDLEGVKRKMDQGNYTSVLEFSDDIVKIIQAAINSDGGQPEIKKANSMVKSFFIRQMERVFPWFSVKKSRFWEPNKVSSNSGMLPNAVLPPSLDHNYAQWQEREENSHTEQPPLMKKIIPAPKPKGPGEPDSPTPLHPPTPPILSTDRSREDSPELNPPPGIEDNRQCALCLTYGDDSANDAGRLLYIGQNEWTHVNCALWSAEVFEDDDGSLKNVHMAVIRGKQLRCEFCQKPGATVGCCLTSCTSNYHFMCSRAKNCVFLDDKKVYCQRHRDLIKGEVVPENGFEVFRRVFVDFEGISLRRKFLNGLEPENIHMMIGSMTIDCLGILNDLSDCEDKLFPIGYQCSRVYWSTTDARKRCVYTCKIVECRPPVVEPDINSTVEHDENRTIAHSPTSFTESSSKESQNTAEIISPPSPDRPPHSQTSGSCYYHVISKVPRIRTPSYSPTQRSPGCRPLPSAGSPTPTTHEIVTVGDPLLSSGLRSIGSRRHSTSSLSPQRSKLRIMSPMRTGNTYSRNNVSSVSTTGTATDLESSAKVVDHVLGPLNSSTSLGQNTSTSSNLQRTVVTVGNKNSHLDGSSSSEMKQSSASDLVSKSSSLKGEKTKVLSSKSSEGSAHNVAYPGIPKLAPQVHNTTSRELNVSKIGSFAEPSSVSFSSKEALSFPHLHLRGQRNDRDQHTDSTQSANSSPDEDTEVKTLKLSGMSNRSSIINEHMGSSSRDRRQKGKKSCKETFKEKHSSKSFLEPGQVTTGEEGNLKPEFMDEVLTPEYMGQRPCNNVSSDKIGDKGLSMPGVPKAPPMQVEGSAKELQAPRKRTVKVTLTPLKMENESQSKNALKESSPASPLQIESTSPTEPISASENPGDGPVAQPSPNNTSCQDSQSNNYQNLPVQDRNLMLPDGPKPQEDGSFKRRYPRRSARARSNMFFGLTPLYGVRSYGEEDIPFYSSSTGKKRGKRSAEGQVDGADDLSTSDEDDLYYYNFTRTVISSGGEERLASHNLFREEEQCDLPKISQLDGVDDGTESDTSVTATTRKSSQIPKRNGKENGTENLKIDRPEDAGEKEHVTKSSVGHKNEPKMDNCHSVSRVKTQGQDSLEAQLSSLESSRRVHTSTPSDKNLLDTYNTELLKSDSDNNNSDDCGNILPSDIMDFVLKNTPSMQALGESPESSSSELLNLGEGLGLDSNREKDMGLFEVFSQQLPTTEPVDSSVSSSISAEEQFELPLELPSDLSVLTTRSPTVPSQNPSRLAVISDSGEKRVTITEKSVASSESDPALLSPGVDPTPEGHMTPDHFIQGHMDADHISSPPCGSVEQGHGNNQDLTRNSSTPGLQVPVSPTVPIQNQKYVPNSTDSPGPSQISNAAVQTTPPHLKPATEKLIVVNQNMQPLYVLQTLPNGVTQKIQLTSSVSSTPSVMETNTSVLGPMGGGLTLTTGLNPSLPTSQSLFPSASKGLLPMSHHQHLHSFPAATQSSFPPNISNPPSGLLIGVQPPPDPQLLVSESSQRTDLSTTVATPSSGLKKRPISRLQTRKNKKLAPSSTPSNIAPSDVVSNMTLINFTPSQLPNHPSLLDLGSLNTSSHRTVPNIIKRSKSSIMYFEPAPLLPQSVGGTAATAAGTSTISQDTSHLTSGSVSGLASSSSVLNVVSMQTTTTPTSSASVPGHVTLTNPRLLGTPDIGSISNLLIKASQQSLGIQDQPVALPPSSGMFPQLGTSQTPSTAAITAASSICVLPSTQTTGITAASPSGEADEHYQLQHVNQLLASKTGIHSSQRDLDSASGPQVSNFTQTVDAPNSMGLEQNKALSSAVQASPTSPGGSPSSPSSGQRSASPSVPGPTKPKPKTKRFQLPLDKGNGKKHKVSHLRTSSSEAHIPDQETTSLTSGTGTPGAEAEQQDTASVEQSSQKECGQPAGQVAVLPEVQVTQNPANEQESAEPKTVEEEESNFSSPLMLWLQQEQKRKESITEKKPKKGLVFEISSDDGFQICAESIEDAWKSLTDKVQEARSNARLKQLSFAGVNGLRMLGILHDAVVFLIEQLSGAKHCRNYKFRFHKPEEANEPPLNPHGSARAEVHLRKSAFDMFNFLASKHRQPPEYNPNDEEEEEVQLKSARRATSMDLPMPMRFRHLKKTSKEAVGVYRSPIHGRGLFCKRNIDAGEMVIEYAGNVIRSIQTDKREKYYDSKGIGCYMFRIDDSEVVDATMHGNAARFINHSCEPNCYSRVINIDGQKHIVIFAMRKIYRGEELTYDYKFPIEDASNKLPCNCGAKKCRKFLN"}, "source": "PubChem BioAssay AID2662", "about": "(National Center for Advancing Translational Sciences (NCATS), 2010)", "note": "The whole screen tested about 290,000 compounds, of which about 110 (0.038%) were called active. The inconclusive results got no clear call from the source; some entries with a clear call stand among them for comparison. Calls come from the whole dose curve; as a rule, active = well fitted inhibition curve with a large enough effect in the polarisation, with a control signal flat (not every such curve was filed as active); inconclusive = small, poorly fitted or top-dose-only effect, or effect the other way, or a change in a side signal; inactive = no such curve, though single readings can be large or run the other way; the % refers to the polarisation. Potencies beside an inconclusive call are fits to weak or partial responses and may not hold up. “Side channel” marks fits to a control or component signal instead of the main read-out. Potency is the fitted concentration of half-maximal effect."}
{"molecular_target": "Histone-lysine N-methyltransferase 2A (Homo sapiens) (UniProt Q03164)", "experiment": "qHTS Fluorescence Polarization Assay for Inhibitors of MLL CXXC domain - DNA interaction", "conditions": "MLL-CXXC / FITC-HOXA9 DNA fluorescence polarization; series mostly up to 115 µM", "method_in_brief": "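Steps: dispense CXXC domain solution (7 uM) → pin compounds or unlabeled HOX-A9 DNA control → 5 min ambient → add FLSN-HOX-A9 solution (50 nM) → spin → 30 min ambient → fluorescence polarization. Tris pH 7.5/NaCl/DTT/BSA buffer.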"}
{"compound": "COc1cc(/C=C2\\SC(=Nc3ccc(Cl)c(C(=O)O)c3)NC2=O)c(Br)c(Br)c1O", "Potency": "inconclusive: 15.8 µM [fluorescent, side channel, full curve]"}
{"compound": "Cc1sc2c(c1C)CN(C1CC(C)(C)NC(C)(C)C1)CN2C(=O)c1ccco1", "Potency": "inconclusive: 44.7 µM [quencher, side channel, single point]"}
{"compound": "COc1ccc(NC(=O)c2sc3nc(-c4cccnc4)ccc3c2N)cc1", "Potency": "inconclusive: 31.6 µM [inhibitor, partial curve]"}
{"compound": "COc1ccc(Nc2nc(N3CCCC3)nc3ccccc23)c(OC)c1", "Potency": "inconclusive: 28.2 µM [quencher, side channel, partial curve]"}
{"compound": "O=C(CSc1nc2ncc(Br)cc2[nH]1)c1cccc([N+](=O)[O-])c1", "Potency": "inconclusive: 6.31 µM [quencher, side channel, full curve, poor fit]"}
{"compound": "O=C(CCN1C(=O)/C(=C/c2ccco2)SC1=S)Nc1ccc(O)cc1C(=O)O", "Potency": "inconclusive: 7.08 µM [inhibitor, single point]"}
{"compound": "COc1ccc2cc3c(N)c(C(=O)NCc4ccco4)sc3nc2c1", "Potency": "inconclusive: 35.5 µM [fluorescent, side channel, single point]"}
{"compound": "CCOC(=O)c1c(NC(=O)c2cnn3c2NC(c2cccc(OC)c2)CC3C(F)(F)F)sc2c1CCCC2", "note": "(centres undefined)", "Potency": "inconclusive: 7.08 µM [fluorescent, side channel, full curve]"}
{"compound": "COc1cc2c(-c3ccc(O)cc3)nc3c(c(C)nn3-c3ccccc3)c2cc1OC", "Potency": "inactive"}
{"compound": "COc1ccc(NC(=O)c2ccc3c(=O)n(-c4ccc(OC)cc4OC)c(=S)[nH]c3c2)cc1", "Potency": "inconclusive: 7.94 µM [fluorescent, side channel, full curve]"}
{"compound": "Cc1nc2c(cc1N)nc(C)n2Cc1ccccc1", "Potency": "inactive"}
{"compound": "Cc1ccc(C(OCC(O)CN2CCCCC2CO)c2ccccc2)cc1", "note": "(centres undefined)", "Potency": "inconclusive: 20 µM [inhibitor, partial curve]"}
{"compound": "COc1ccc(Cc2nnc(Nc3ccc(C)cc3C)[nH]c2=O)cc1", "Potency": "inactive"}
{"compound": "O=C(C1COc2ccccc2O1)N1CCN(S(=O)(=O)c2ccccc2)CC1", "note": "(centres undefined)", "Potency": "inconclusive: 39.8 µM [fluorescent, side channel, single point]"}
{"compound": "Cc1ccc(Oc2ccc(NC(=O)Cn3ccsc3=N)cc2)cc1", "Potency": "inconclusive: 56.2 µM [quencher, side channel, partial curve]"}
{"compound": "COc1ccc(-c2csc(/C(C#N)=C/Nc3cc4oc5ccccc5c4cc3OC)n2)cc1", "Potency": "inconclusive: 31.6 µM [fluorescent, side channel, partial curve]"}
{"compound": "CCOc1ccc(NC(=O)COC(=O)COc2cccc3c2OC(C)(C)C3)cc1", "Potency": "inconclusive: 8.91 µM [fluorescent, side channel, single point]"}
{"compound": "C=CCOC(=O)C1=C(C)OC(N)=C(C#N)C1c1ccoc1", "note": "(centres undefined)", "Potency": "inconclusive: 28.2 µM [fluorescent, side channel, partial curve]"}
{"compound": "CC(Nc1ccc(Br)cn1)c1cc(Cl)ccc1O", "note": "(centres undefined)", "Potency": "inconclusive: 89.1 µM [quencher, side channel, single point]"}
{"compound": "O=C(Nc1ccccc1)C1CCCN1S(=O)(=O)c1ccc(Br)cc1", "note": "(centres undefined)", "Potency": "inconclusive: 7.94 µM [quencher, side channel, single point]"}
{"compound": "COC(=O)CCSc1cc([N+](=O)[O-])cc2c1c(C1OCCS1)nn2-c1ccccc1", "note": "(centres undefined)", "Potency": "inconclusive: 70.8 µM [fluorescent, side channel, single point]"}
{"compound": "O=C(/C=C/c1ccc(O)c(O)c1)c1ccccc1O", "Potency": "inactive"}
{"compound": "COc1ccc([N+](=O)[O-])cc1NC(=O)CCN1CCOCC1", "Potency": "inconclusive: 8.91 µM [fluorescent, side channel, single point]"}
{"compound": "O=C(CSc1n[nH]c(=O)n1Cc1ccco1)c1ccc2c(c1)OCCO2", "Potency": "inconclusive: 14.1 µM [inhibitor, single point]"}
{"compound": "CSc1ccc(C(=O)C2CCCN(C(=O)Cn3cnnn3)C2)cc1", "note": "(centres undefined)", "Potency": "inconclusive: 10 µM [inhibitor, single point]"}
{"compound": "COC(=O)/C(C#N)=C/c1c(N2CCN(C)CC2)nc2ccccn2c1=O", "Potency": "inconclusive: 35.5 µM [fluorescent, side channel, partial curve]"}
{"compound": "Cn1nc(-c2ccccc2)c(C(=O)NC(C(=O)O)c2ccccc2)c1Cl", "note": "(centres undefined)", "Potency": "inconclusive: 100 µM [inhibitor, partial curve, poor fit]"}
{"compound": "CCOc1ccc(C(=O)NCCc2cnc[nH]2)cc1OCC", "Potency": "inconclusive: 7.94 µM [quencher, side channel, single point]"}
{"compound": "c1ccc(-c2nc3cc4ccccc4cc3[nH]2)nc1", "Potency": "inconclusive: 63.1 µM [quencher, side channel, single point]"}
{"compound": "COc1cccc(/C=N/NC(=O)CNC(=O)COc2cccc(C)c2)c1O", "Potency": "inactive"}
{"compound": "Cc1c(N2C(=O)C(=O)/C(=C(/O)c3ccc(Cl)cc3)C2c2ccccc2)c(=O)n(-c2ccccc2)n1C", "note": "(centres undefined)", "Potency": "inconclusive: 70.8 µM [fluorescent, side channel, single point]"}
{"compound": "Cc1cc([N+](=O)[O-])nn1CC(=O)N(C)Cc1ccccc1", "Potency": "inactive"}
{"compound": "CCOc1ccc(Br)cc1CSC(=N)N", "Potency": "inconclusive: 35.5 µM [inhibitor, single point]"}
{"compound": "CC(=O)Nc1c(C(=O)Nc2ccc3c(c2)OCO3)oc2ccccc12", "Potency": "inactive"}
{"compound": "O=C(CSc1ccc(Cl)cc1)N1CCN(c2ncc(C(F)(F)F)cc2Cl)CC1", "Potency": "inconclusive: 1.58 µM [quencher, side channel, full curve, poor fit]"}
{"compound": "CCn1c(=O)c2ccccc2n(Cc2ccc([N+](=O)[O-])cc2)c1=O", "Potency": "inconclusive: 15.8 µM [inhibitor, full curve]"}
{"compound": "CCCCn1c(C(C)NC(=O)c2cccs2)nc2ccccc21", "note": "(centres undefined)", "Potency": "inactive"}
{"compound": "CC1(C)Oc2cc(N)c([N+](=O)[O-])cc2O1", "Potency": "inactive"}
{"compound": "COc1ccc(CC(=O)NNC2=Nc3cccc4cccc2c34)cc1", "Potency": "inconclusive: 31.6 µM [fluorescent, side channel, partial curve]"}
{"compound": "CCOC(=O)C(C(C)=O)c1c(Br)c(O)c(O)c2c(C(=O)c3ccc(C)cc3)coc12", "note": "(centres undefined)", "Potency": "inactive"}
{"compound": "Cc1ccc(NC2=Nc3ccccc3CS2)cc1", "Potency": "inconclusive: 50.1 µM [fluorescent, side channel, single point]"}
{"compound": "S=c1[nH]cnc2scc(-c3ccc(Br)cc3)c12", "Potency": "inactive"}
{"compound": "O=C(Nc1ccc(SC(F)F)cc1)C12CCC(CC1)C2", "Potency": "inconclusive: 44.7 µM [inhibitor, single point]"}
{"compound": "O=C1c2cccc3c([N+](=O)[O-])ccc(c23)C(=O)N1c1ccc(Cl)cn1", "Potency": "inconclusive: 50.1 µM [inhibitor, single point]"}
{"compound": "CCC(Br)C(=O)Nc1ccc(OC)cc1", "note": "(centres undefined)", "Potency": "inconclusive: 100 µM [fluorescent, side channel, partial curve, poor fit]"}
{"compound": "COc1ccc2c(c1OC)C(=O)N(c1cccc(/C=C/C(=O)O)c1)C2", "Potency": "inconclusive: 14.1 µM [inhibitor, single point]"}
{"compound": "COc1ccccc1-c1ccc(/C=C2\\C=CC(=O)O2)o1", "Potency": "inconclusive: 15.8 µM [fluorescent, side channel, partial curve]"}
{"compound": "O=C(Nc1ccnn1C1CCN(Cc2ccccc2)CC1)C1CCCC1", "Potency": "inconclusive: 89.1 µM [quencher, side channel, single point]"}
{"compound": "O=C1c2ccccc2-c2n[nH]c3cccc1c23", "Potency": "inconclusive: 31.6 µM [inhibitor, full curve]"}
{"compound": "O=C(c1ccc(OCCN2CCCCC2)cc1)c1c(-c2ccc(O)cc2)sc2cc(O)ccc12", "Potency": "inconclusive: 31.6 µM [quencher, side channel, partial curve]"}
{"compound": "OCCCNc1nc(-c2ccccc2)c2cc(Br)ccc2n1", "Potency": "inconclusive: 35.5 µM [fluorescent, side channel, partial curve]"}
{"compound": "CC(C)C(=O)Nc1nc(-c2ccc(S(=O)(=O)N3CCOCC3)cc2)cs1", "Potency": "inactive"}
{"compound": "CCOc1ccc(C2NC(=O)C(C#N)=C(S)N2c2ccc(C)cc2)cc1OC", "note": "(centres undefined)", "Potency": "inconclusive: 35.5 µM [inhibitor, partial curve]"}
{"compound": "CCC(CC)C(=O)c1c[nH]c(C(=O)N2CCN(c3ccccc3)CC2)c1", "Potency": "inconclusive: 6.31 µM [inhibitor, single point]"}
{"compound": "COc1cc(CCC(O)CC(=O)CCc2ccccc2)ccc1O", "note": "(centres undefined)", "Potency": "inactive"}
{"compound": "Cc1ccc(NC(=O)c2cc3ccccc3oc2=N)cc1", "Potency": "inactive"}
{"compound": "COc1ccc2c(c1)c(C(C)=O)c(C)n2-c1ccc(C(C)=O)cc1", "Potency": "inactive"}
{"compound": "COc1ccc(-n2c(COc3ccc(Cl)cc3)nnc2SCc2ccc(C#N)cc2)cc1", "Potency": "inactive"}
{"compound": "C[n+]1cccc(/C=N/NC(=O)CC23CC4CC(CC(C4)C2)C3)c1", "Potency": "inactive"}
{"compound": "CCOC(=O)c1c(C)[nH]c(C(=O)N/N=C/c2cc([N+](=O)[O-])ccc2O)c1C", "Potency": "inactive"}
{"compound": "COc1ccc(/C=C/c2nnc(NC(=O)COc3cccc(C)c3)s2)cc1", "Potency": "inconclusive: 14.1 µM [inhibitor, single point]"}
{"compound": "COc1nc(-c2ccccc2)ncc1S(=O)(=O)c1ccccc1", "Potency": "inactive"}
{"compound": "COc1ccccc1/C=C1\\SC(=S)N(N2C(=O)CCCC2=O)C1=O", "Potency": "inconclusive: 35.5 µM [fluorescent, side channel, single point]"}
{"compound": "Cc1ccc(OCCSc2ncccn2)c(C)c1", "Potency": "inconclusive: 7.94 µM [fluorescent, side channel, single point]"}
